Record: PubChem BioAssay AID743454 (Peter MacCallum Cancer Centre, 2014)

Purpose: 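Knock-downs lowering viability or raising caspase 3/7 activity in vorinostat-treated resistant cells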 (primary screen)
System: human HCT116-VR colon cancer cells, selected for vorinostat resistance
Reagent: siRNA pool against human genes, 40 nM siRNA pool
Timing: vorinostat for 24 h, read-out about 72 h after transfection
Challenge: vorinostat at 2.5 µM final
Read-out: 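Cell viability by CellTiter-Fluor and caspase 3/7 activity by luminescence, each scaled to mock wells per plate, duplicates averaged, then robust z-scored over all plates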
Reading the numbers: viability robust z-score: higher = more viable cells than screen typical; caspase robust z-score: higher = more caspase 3/7 activity than screen typical
Hit rule: 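a knock-down is a hit when classed RV1 or RV2 for lowered viability, or CA1 or CA2 for caspase activation; those lethal without drug were dropped; hits were retested singly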
This is an unselected part of about 18,000 reagents tested. 450 of them (2.5%) count as active. 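Single biological run; no consistent viability z cut-off exists, so the class columns, not z-scores, define the calls.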

PRELP (GeneID 5549) — viability hit class: no change; caspase hit class: no change; viability robust z-score: 0.4; caspase robust z-score: -0.53; Call: inactive
WDR48 (GeneID 57599) — viability hit class: no change; caspase hit class: no change; viability robust z-score: -1.48; caspase robust z-score: -0.97; Call: inactive
BCDIN3D (GeneID 144233) — viability hit class: no change; caspase hit class: no change; viability robust z-score: 0.66; caspase robust z-score: -0.08; Call: inactive
LRRC52 (GeneID 440699) — viability hit class: no change; caspase hit class: no change; viability robust z-score: 0.49; caspase robust z-score: -0.32; Call: inactive
KRTAP10-8 (GeneID 386681) — viability hit class: no change; caspase hit class: no change; viability robust z-score: 0.94; caspase robust z-score: -0.08; Call: inactive
TLE2 (GeneID 7089) — viability hit class: no change; caspase hit class: no change; viability robust z-score: 0.32; caspase robust z-score: -0.98; Call: inactive
APBB3 (GeneID 10307) — viability hit class: no change; caspase hit class: no change; viability robust z-score: -0.78; caspase robust z-score: 0.82; Call: inactive
OR52K2 (GeneID 119774) — viability hit class: no change; caspase hit class: no change; viability robust z-score: 0.78; caspase robust z-score: -0.17; Call: inactive
CDO1 (GeneID 1036) — viability hit class: no change; caspase hit class: no change; viability robust z-score: -0.41; caspase robust z-score: -0.11; Call: inactive
UFC1 (GeneID 51506) — viability hit class: no change; caspase hit class: no change; viability robust z-score: 0.5; caspase robust z-score: -1.14; Call: inactive

3 entries from above, reformatted.
gene	viability hit class	caspase hit class	viability robust z-score	caspase robust z-score	Call
TLE2 (GeneID 7089)	no change	no change	0.32	-0.98	inactive
APBB3 (GeneID 10307)	no change	no change	-0.78	0.82	inactive
OR52K2 (GeneID 119774)	no change	no change	0.78	-0.17	inactive

The list goes on:
CASS4 (GeneID 57091) — viability hit class: no change; caspase hit class: no change; viability robust z-score: 0.06; caspase robust z-score: 1.24; Call: inactive
ARL17B (GeneID 100506084) — viability hit class: no change; caspase hit class: no change; viability robust z-score: -0.76; caspase robust z-score: 1.03; Call: inactive
KLRG2 (GeneID 346689) — viability hit class: no change; caspase hit class: no change; viability robust z-score: -0.46; caspase robust z-score: -0.54; Call: inactive
PRPH (GeneID 5630) — viability hit class: no change; caspase hit class: no change; viability robust z-score: 0.92; caspase robust z-score: 1.66; Call: inactive
BRWD1 (GeneID 54014) — viability hit class: no change; caspase hit class: no change; viability robust z-score: 1.01; caspase robust z-score: -0.55; Call: inactive
POGLUT2 (GeneID 79070) — viability hit class: no change; caspase hit class: no change; viability robust z-score: 0.2; caspase robust z-score: 0.84; Call: inactive
VHL (GeneID 7428) — viability hit class: no change; caspase hit class: no change; viability robust z-score: -1.19; caspase robust z-score: 3.38; Call: inactive
SIPA1 (GeneID 6494) — viability hit class: no change; caspase hit class: no change; viability robust z-score: 0.59; caspase robust z-score: -0.7; Call: inactive
RPL39L (GeneID 116832) — viability hit class: no change; caspase hit class: no change; viability robust z-score: -0.76; caspase robust z-score: 0.72; Call: inactive
DYNC1LI2 (GeneID 1783) — viability hit class: no change; caspase hit class: no change; viability robust z-score: 0.74; caspase robust z-score: -0.29; Call: inactive
LMBR1L (GeneID 55716) — viability hit class: no change; caspase hit class: no change; viability robust z-score: -0.03; caspase robust z-score: 0.22; Call: inactive
